# Reference: PMC6003574, “Selection of a novel CD19 aptamer for targeted delivery of doxorubicin to lymphoma cells”
# Chains of the proteins cited; added tags and fusions are not shown. Residues count along the entry.
# UniProt P15391, 20-556: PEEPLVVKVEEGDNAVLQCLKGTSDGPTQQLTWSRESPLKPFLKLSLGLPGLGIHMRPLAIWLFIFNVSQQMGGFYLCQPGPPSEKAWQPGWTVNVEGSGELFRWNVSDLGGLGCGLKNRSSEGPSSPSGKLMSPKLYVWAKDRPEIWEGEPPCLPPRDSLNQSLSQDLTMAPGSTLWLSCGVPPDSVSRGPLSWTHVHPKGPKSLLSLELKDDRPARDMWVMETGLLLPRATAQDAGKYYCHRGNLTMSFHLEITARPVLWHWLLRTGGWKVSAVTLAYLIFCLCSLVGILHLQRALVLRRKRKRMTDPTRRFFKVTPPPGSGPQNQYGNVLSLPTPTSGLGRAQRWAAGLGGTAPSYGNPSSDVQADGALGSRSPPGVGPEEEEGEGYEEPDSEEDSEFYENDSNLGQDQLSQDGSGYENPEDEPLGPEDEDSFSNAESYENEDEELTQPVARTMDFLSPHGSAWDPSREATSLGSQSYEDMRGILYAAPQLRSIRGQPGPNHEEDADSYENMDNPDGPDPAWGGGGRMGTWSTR
# For part of these data: The comparison behind a weaker result is the experiment's own reference, which may not be listed here. For part of these data: Where a protein sequence is shown, tags need not be part of it. For part of these data: Construct, isoform or probe ends are uncertain for at least one entry. For part of these data: Results from cells or extracts need not show a direct contact.
# Key:
# Ovalbumin (OVA) = target: T1, Ovalbumin (OVA) (UniProt P01012); test: flow cytometry on protein-coated beads; settings: PBS, 37 C, 30 min, three PBS washes; bead flow cytometry, random ssDNA pool as background; pH not stated; commercial protein; single-stranded DNA
# T1 sequence (looked up, limits assumed): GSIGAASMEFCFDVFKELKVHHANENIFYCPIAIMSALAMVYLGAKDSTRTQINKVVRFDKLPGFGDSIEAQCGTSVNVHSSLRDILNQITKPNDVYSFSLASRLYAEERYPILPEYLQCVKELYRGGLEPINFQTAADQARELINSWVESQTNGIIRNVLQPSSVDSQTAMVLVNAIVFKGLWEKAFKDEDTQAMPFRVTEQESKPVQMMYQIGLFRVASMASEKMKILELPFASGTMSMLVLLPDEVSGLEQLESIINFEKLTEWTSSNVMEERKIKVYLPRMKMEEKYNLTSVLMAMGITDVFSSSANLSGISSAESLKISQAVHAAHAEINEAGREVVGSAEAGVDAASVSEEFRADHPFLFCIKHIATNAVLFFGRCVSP
# CD19 on Raji cells = CD19 on Raji cells (UniProt P15391); test: flow cytometry and confocal microscopy on cells; settings: Raji cells, CD19-negative Jurkat and NB4 weak; PBS, 37 C, 30 min, three PBS washes; bead flow cytometry, random ssDNA pool as background; pH not stated; protein on the cell surface; single-stranded DNA
# CD19 on Ramos cells = CD19 on Ramos cells (UniProt P15391); test: flow cytometry and confocal microscopy on cells; settings: Ramos cells, CD19-negative Jurkat and NB4 weak; PBS, 37 C, 30 min, three PBS washes; bead flow cytometry, random ssDNA pool as background; pH not stated; protein on the cell surface; single-stranded DNA
sequence,measurement,setting,value
TGCGTGTGTAGTGTGTCTGTTCTCCTTTTTTTGGTTGCTGCTCTTAGGGATTTGGGCGG [LC1],binding result,Ovalbumin (OVA),binds more weakly
same,binding result,CD19 on Raji cells,binds
same,binding result,CD19 on Ramos cells,binds
